## Library screen at single concentrations

Source: ChEMBL document CHEMBL3988442, “University of Dundee, Small-Polar-MMV Screening Library” (2021).

Each number is a percent effect as filed.
How 0% and 100% were set is not recorded. Most values in the screen are low, and negative values occur.
This is an unselected part of the compounds tested.
Two or more numbers in one place are separate tests of the same structure; such repeats can differ widely.

Mtb cholesterol medium: 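Whole-cell growth test on Mycobacterium tuberculosis, read after 4 days in a medium based on cholesterol and the lipid DPPC; the read-out is not stated. Tested at 50 µM. Higher reads as more growth inhibition (inferred: compounds with an IC50 in retests scored well above the rest). About 69,000 compounds were tested under these conditions; 0.54% (about 370) showed 50% or more at least once.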
Mtb glucose medium: 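Whole-cell growth test on Mycobacterium tuberculosis, read after 3 days in glucose-containing 7H9 medium; the read-out is not stated. Compounds at 50 µM. The record gives no direction; compounds that gave an IC50 in retests scored well above the rest, so higher reads as more growth inhibition. About 69,000 compounds were tested under these conditions; 1.1% (about 760) showed 50% or more at least once.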

* COCC(=O)NCc1cccnc1-n1cnc2ccccc21 | Mtb cholesterol medium: -4.335%; Mtb glucose medium: -1.801%
* Cc1nnsc1CN(C)C(=O)CCn1cnc2ccccc21 | Mtb cholesterol medium: 10.16%; Mtb glucose medium: 21.03%
* COc1cccc2[nH]cc(CCNC(=O)N3CCC[C@H]3CO)c12 | Mtb cholesterol medium: -13.99%; Mtb glucose medium: -3.315% & -3.93%
* COc1cncc(N2CCN(Cc3cccn3C)CC2)n1 | Mtb cholesterol medium: -3.616%; Mtb glucose medium: -6.523%
* CC(C)[C@H]1COC(=O)N1CC(=O)N1CCN(C(=O)c2ccco2)CC1 | Mtb cholesterol medium: -20.61%; Mtb glucose medium: -48.98% & -2.468%
* [H][C@@]12CCN(C(=O)CC(C)(C)C)C[C@]1([H])CCN(CCc1c[nH]cn1)C(=O)C2 | Mtb cholesterol medium: -8.7%; Mtb glucose medium: -11.79% & -12.37%
* O=C(CN1C(=O)CCC1=O)NCCc1nc(C2CC2)cc(C(F)(F)F)n1 | Mtb cholesterol medium: -16.96%; Mtb glucose medium: -14.69%
* O=C(C1CC1)N1CCC[C@]2(C[C@@H](OCc3ccncc3)CO2)C1.O=C(O)C(F)(F)F | Mtb cholesterol medium: -27.15%; Mtb glucose medium: -19.78% & -5.888%
* COC(=O)CCN(C)C(=O)c1csc(Cc2ccccc2F)n1 | Mtb cholesterol medium: -11.29%; Mtb glucose medium: 2.235%
* Cc1nnc(NCC2(c3ccccc3)CC2)c(C#N)c1C | Mtb cholesterol medium: -2.364%; Mtb glucose medium: 6.297%
* CCNc1ncc(CN(CCN(C)C)Cc2ccc(C)s2)cn1 | Mtb cholesterol medium: -10.73%; Mtb glucose medium: 16.16%
* CN(C)Cc1nc2c(o1)CN(C(=O)NCc1cccc(F)c1)C2.O=C(O)C(F)(F)F | Mtb cholesterol medium: 12.35%; Mtb glucose medium: 25.96% & 16.06%
* O=C(NCC1CCCO1)c1ccc(S(=O)(=O)NCCc2cn[nH]c2)cc1 (stereo not shown) | Mtb cholesterol medium: -17.07%; Mtb glucose medium: -27.81%
* O=C(O)C(F)(F)F.[H][C@@]12CN(Cc3cccc(C)c3)C[C@]1([H])OCCN2S(=O)(=O)N(C)C | Mtb cholesterol medium: 20.17%; Mtb glucose medium: 7.589% & -5.331%
* O=C(O)C(F)(F)F.[H][C@@]12C[C@@H](C(=O)NC(C)C)C[C@@]1([H])N(Cc1ccc(C)o1)CCO2 | Mtb cholesterol medium: 21%; Mtb glucose medium: -2.679% & 34.02%
* COc1ccccc1C1CNCCN1C(=O)c1ccc(F)cc1 (stereo not shown) | Mtb cholesterol medium: -5.917%; Mtb glucose medium: -13.66%
* O=C(O)C(F)(F)F.O=C(O)C(F)(F)F.[H][C@@]12OCCN(CC3CCOCC3)[C@@]1([H])CC[C@H]2OCc1ccncc1 | Mtb cholesterol medium: -20.22%; Mtb glucose medium: -14.41%
* COCCN(Cc1ccc(C)cc1)CC1CCOC1 (stereo not shown) | Mtb cholesterol medium: 0.7395%; Mtb glucose medium: 9.821%
* Cc1cc(NC(=O)NCC(CC(C)C)N2CCOCC2)n(C)n1 (stereo not shown) | Mtb cholesterol medium: -11.3%; Mtb glucose medium: -5.863% & -3.257%
* CNc1ncccc1CN1CCC1c1cc(N)nc(C)n1 (stereo not shown) | Mtb cholesterol medium: -18.47%; Mtb glucose medium: -13.7%
* CSc1cccc(NC(=O)N2CCC3(CCC(=O)N(C4CC4)C3)CC2)c1 | Mtb cholesterol medium: 8.683%; Mtb glucose medium: -14.98%
* CCn1cc(CN2CCC(c3nnc(CN(C)C)n3CC)CC2)cn1 | Mtb cholesterol medium: -39.1%; Mtb glucose medium: -89.56%
* Cc1ncsc1C(=O)NC1CCN(Cc2ccc(C(F)(F)F)cc2)CC1 | Mtb cholesterol medium: -17.46%; Mtb glucose medium: -25.07%
* Cc1nc(N2CCC(C(O)c3nccn3C)CC2)c2sccc2n1 (stereo not shown) | Mtb cholesterol medium: 2.118%; Mtb glucose medium: -38.95%
* O=C(NCCc1cccnc1)c1cn(CCN2CCNCC2)nn1 | Mtb cholesterol medium: -1.627%; Mtb glucose medium: -33.61%
* Cc1ccccc1OCC(O)CN1CCC(Cn2cccn2)CC1 (stereo not shown) | Mtb cholesterol medium: -2.807%; Mtb glucose medium: 2.08%
* CC(C)Nc1nc2c(c(N(C)C)n1)CCN(Cc1nccn1C)CC2.O=C(O)C(F)(F)F | Mtb cholesterol medium: 5.43%; Mtb glucose medium: -0.6822% & -9.584%
* [H][C@@]12CCN(Cc3c(C)noc3C)C[C@@]1([H])O[C@@H](c1ccncn1)C2 | Mtb cholesterol medium: 6.223%; Mtb glucose medium: 18.08%
* O=C(CNc1ccccc1Cl)Nc1cc(-n2cnnn2)ccc1F | Mtb cholesterol medium: -34.42%; Mtb glucose medium: -23.04%
* CC(CCc1ccccc1F)C(=O)NS(=O)(=O)CC1CC1 (stereo not shown) | Mtb cholesterol medium: 7.767%; Mtb glucose medium: -11.09% & -2.181%

3 of the entries, repeated:

structure	Mtb cholesterol medium	Mtb glucose medium
Cc1nc(N2CCC(C(O)c3nccn3C)CC2)c2sccc2n1 (stereo not shown)	2.118	-38.95
O=C(O)C(F)(F)F.O=C(O)C(F)(F)F.[H][C@@]12OCCN(CC3CCOCC3)[C@@]1([H])CC[C@H]2OCc1ccncc1	-20.22	-14.41
Cc1ccccc1OCC(O)CN1CCC(Cn2cccn2)CC1 (stereo not shown)	-2.807	2.08